Measurements: publication PMC4594993
No constants are given. Whether binding was seen depends on the method and setting. In cells and extracts the contact can be indirect. Some results given as binding are weak or reduced against the parent protein; the word gives no strength. Tags and fused reporters may be left off the sequences shown.

Target: T1, Flotillin-1-eGFP (human) (UniProt O75955)
T1 sequence: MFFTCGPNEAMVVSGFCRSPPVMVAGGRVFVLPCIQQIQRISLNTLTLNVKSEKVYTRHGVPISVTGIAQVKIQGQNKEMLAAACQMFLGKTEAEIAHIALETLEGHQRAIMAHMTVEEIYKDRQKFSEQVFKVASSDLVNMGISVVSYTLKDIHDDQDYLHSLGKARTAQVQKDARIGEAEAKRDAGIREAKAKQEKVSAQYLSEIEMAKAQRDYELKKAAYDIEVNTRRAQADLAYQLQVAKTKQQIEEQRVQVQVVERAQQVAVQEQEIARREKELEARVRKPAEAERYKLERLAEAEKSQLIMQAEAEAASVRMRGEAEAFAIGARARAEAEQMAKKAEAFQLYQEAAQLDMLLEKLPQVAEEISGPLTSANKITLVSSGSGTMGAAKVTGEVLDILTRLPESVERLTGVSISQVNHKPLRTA
Assay: FRET or BRET; FRET imaging in SMMC-7721 cells co-transfected with acceptor (CD147-dsRed1) and donor (Flotillin-1-eGFP); CoA and CoB from single-transfected donor and acceptor samples

Which binding does the source give for “CD98 (FRET partner of flotillin-1-eGFP) (from UniProt P08195-1 1-630)” here?
The binding was “binds”.
